Cell viability data for 69 compounds are collected here from the supplement of paper PMC9744312.

Where a name gives a salt, the structure may show the parent alone. Some of the results follow. This is a noisy data set.

The test system of this test is Peyronie's disease tunica albuginea primary fibroblasts. The test is described as follows: cell viability (DRAQ5 nuclear stain) relative to TGF-beta1-only control; higher = more viable cells. The note with it: 10 µM; TGF-beta1 10 ng/mL; 72 h.
Turning to `Cn1c(=O)c2c(ncn2CC2OCCO2)n(C)c1=O` [Doxofylline], the cell viability was determined as 97%.

`CN1CCN(CC(=O)N2c3ccccc3C(=O)Nc3cccnc32)CC1` [Pirenzepine dihydrochloride]: the cell viability stood at 94.7%.

Take `CC(C)(C)c1cc(C(C)(C)C)c(NC(=O)c2c[nH]c3ccccc3c2=O)cc1O` [Ivacaftor (VX-770)]: the cell viability was found to be 85.6%.

Consider `Cc1ccc([C@@H]2O[C@H](CO)[C@@H](O)[C@H](O)[C@H]2O)cc1Cc1ccc(-c2ccc(F)cc2)s1` [Canagliflozin], for which the cell viability is 81.3%.

Regarding `CCOC(=O)[C@H]1O[C@@H]1C(=O)N[C@@H](CC(C)C)C(=O)NCCC(C)C` [Aloxistatin], the cell viability was found to be 92.9%.

For the compound `CC(C)NCC(O)COc1ccc(CC(N)=O)cc1` (centres undefined) [Atenolol], the cell viability was found to be 84.4%.

As for `CC(C)Cn1cnc2c(N)nc3ccccc3c21` [Imiquimod], the cell viability came to 95.8%.

Take `NC(=O)N1c2ccccc2CC(=O)c2ccccc21` [Oxcarbazepine]: the cell viability was 82.4%.

For the compound `NC1=NCC2c3ccccc3Cc3ccccc3N12` (centres undefined) [Epinastine HCl], the cell viability turned out to be 65.3%.

For the compound `Cn1nnc(-c2ccc(-c3ccc(N4C[C@H](CO)OC4=O)cc3F)cn2)n1` [Tedizolid], the cell viability is 87.9%.

For the compound `Cc1cccc(Nc2ccncc2S(=O)(=O)NC(=O)NC(C)C)c1` [Torsemide], the cell viability is 92.5%.

Turning to `O=C1N=C(O)NC1(c1ccccc1)c1ccccc1` [Phenytoin Sodium], the cell viability came out at 99.9%.

Take `CCNC(=O)[C@@H]1CCCN1C(=O)[C@H](CCCNC(=N)N)NC(=O)[C@H](CC(C)C)NC(=O)[C@@H](CC(C)C)NC(=O)[C@H](Cc1ccc(O)cc1)NC(=O)[C@H](CO)NC(=O)[C@H](Cc1c[nH]c2ccccc12)NC(=O)[C@H](Cc1c[nH]cn1)NC(=O)[C@@H]1CCC(=O)N1` [Leuprorelin Acetate]: the cell viability was determined as 102%.

With `CCNC(=O)[C@@H]1CCCN1C(=O)[C@H](CCCNC(=N)N)NC(=O)[C@H](CC(C)C)NC(=O)[C@@H](CC(C)C)NC(=O)[C@H](Cc1ccc(O)cc1)NC(=O)[C@H](CO)NC(=O)[C@H](Cc1c[nH]c2ccccc12)NC(=O)[C@H](Cc1c[nH]cn1)NC(=O)[C@@H]1CCC(=O)N1` [Leuprolide Acetate], the cell viability came out at 82.7%.

In the case of `CN(C)c1cc(NC(=O)CNC(C)(C)C)c(O)c2c1C[C@H]1C[C@H]3[C@H](N(C)C)C(O)=C(C(N)=O)C(=O)[C@@]3(O)C(O)=C1C2=O` [Tigecycline], the cell viability came to 89.9%.

Consider `CC1(C)O[C@@H]2[C@@H](CO[C@@]3(COS(N)(=O)=O)OC(C)(C)O[C@@H]23)O1` [Topiramate], for which the cell viability was 47.5%.

Regarding `COc1cc(NS(=O)(=O)c2ccc(N)cc2)nc(OC)n1` [Sulphadimethoxine], the cell viability amounted to 85.4%.

With `Cc1ccccc1C(=O)Nc1ccc(C(=O)N2CCCC(N(C)C)c3ccccc32)cc1` (centres undefined) [Mozavaptan], the cell viability was 93.8%.

In the case of `CN(Cc1ccc(C(C)(C)C)cc1)Cc1cccc2ccccc12` [Butenafine HCl], the cell viability was 94.3%.

For `S=c1[nH]cnc2nc[nH]c12` [Mercaptopurine (6-MP)], the cell viability worked out at 90.4%.

Turning to `CC1(C)S[C@@H]2[C@H](NC(=O)COc3ccccc3)C(=O)N2[C@H]1C(=O)O` [Penicillin V potassium salt], the cell viability was 100%.

Consider `COc1ccc2c3c1O[C@H]1C[C@@H](O)C=C[C@@]31CCN(C)C2` [Galanthamine HBr], for which the cell viability was 98%.

For `O=c1[nH]c(=O)n([C@H]2C[C@H](O)[C@@H](CO)O2)cc1C(F)(F)F` [Trifluridine], the cell viability came to 88.8%.

As for `Cc1cc(C#N)cc(C)c1Oc1nc(Nc2ccc(C#N)cc2)nc(N)c1Br` [Etravirine (TMC125)], the cell viability stood at 92.1%.

`c1cc(CN2CCCNCCNCCCNCC2)ccc1CN1CCCNCCNCCCNCC1` [Plerixafor 8HCl (AMD3100 8HCl)]: the cell viability was found to be 102%.

As for `c1cc(CN2CCCNCCNCCCNCC2)ccc1CN1CCCNCCNCCCNCC1` [Plerixafor (AMD3100)], the cell viability stood at 110%.

Take `CC1(C)[C@@H](O)CC[C@]2(C)[C@H]3C(=O)C=C4[C@@H]5C[C@@](C)(C(=O)O)CC[C@]5(C)CC[C@@]4(C)[C@]3(C)CC[C@@H]12` [Enoxolone]: the cell viability stood at 101%.

As for `O=C(O)c1ccc(NC(=O)[C@H](Cc2ccc(O)cc2)NC(=O)c2ccccc2)cc1` [Bentiromide], the cell viability worked out at 83.5%.

In the case of `O=C(O)c1ccc(-n2nc(-c3ccccc3O)nc2-c2ccccc2O)cc1` [Deferasirox], the cell viability was 73.9%.

In the case of `NCCS` [Cysteamine HCl], the cell viability amounted to 89.4%.

As to `COCCOC(=O)C1=C(C)NC(C)=C(C(=O)OC(C)C)C1c1cccc([N+](=O)[O-])c1` (centres undefined) [Nimodipine], the cell viability turned out to be 97.2%.

`COc1c(C)c2c(c(O)c1C/C=C(\C)CCC(=O)OCCN1CCOCC1)C(=O)OC2` [Mycophenolate Mofetil]: the cell viability was found to be 51.1%.

For `CN1C(C(=O)Nc2ccccn2)=C(O)c2ccccc2S1(=O)=O` [Piroxicam], the cell viability amounted to 94%.

`CC(C)C[C@H](NC(=O)CNC(=O)[C@H](Cc1ccc(O)cc1)NC(=O)[C@H](CO)NC(=O)[C@H](Cc1c[nH]c2ccccc12)NC(=O)[C@H](Cc1cnc[nH]1)NC(=O)[C@@H]1CCC(=O)N1)C(=O)N[C@@H](CCCNC(=N)N)C(=O)N1CCC[C@H]1C(=O)NCC(N)=O` [Gonadorelin Acetate]: the cell viability came to 103%.

On to `COC(=O)CCc1ccc(OCC(O)CNC(C)C)cc1` (centres undefined) [Esmolol HCl], for which the cell viability was determined as 93.2%.

`NCC(=O)CCC(=O)O` [5-Aminolevulinic acid HCl]: the cell viability worked out at 91.1%.

With `Cc1ccc(Sc2ccccc2N2CCNCC2)c(C)c1`, the cell viability was 80%.

For the compound `Cc1ccc(Sc2ccccc2N2CCNCC2)c(C)c1` [Vortioxetine], the cell viability amounted to 62.9%.

Regarding `O=C(O)/C=C/C(=O)O` [Fumaric acid], the cell viability was determined as 90.9%.

Take `O=C(O)C[C@H](O)C[C@H](O)/C=C/c1c(C2CC2)nc2ccccc2c1-c1ccc(F)cc1` [Pitavastatin Calcium]: the cell viability is 40%.

Regarding `Cc1ccc(C)c(OCCCC(C)(C)C(=O)O)c1` [Gemfibrozil], the cell viability amounted to 95.8%.

For `NS(=O)(=O)Cc1noc2ccccc12` [Zonisamide], the cell viability worked out at 78.9%.

`COc1ccc2c(c1)C(=O)N(CCc1ccc(S(=O)(=O)NC(=O)NC3CCCCC3)cc1)C(=O)C2(C)C` [Gliquidone]: the cell viability was 95.8%.

Take `Cc1cn([C@H]2C[C@H](N=[N+]=[N-])[C@@H](CO)O2)c(=O)[nH]c1=O` [Zidovudine]: the cell viability was found to be 94.7%.

In the case of `COc1ccc([C@@H]2Sc3ccccc3N(CCN(C)C)C(=O)[C@@H]2OC(C)=O)cc1` [Diltiazem HCl], the cell viability stood at 88.8%.

Consider `NCCC(O)(P(=O)(O)O)P(=O)(O)O` [Pamidronate Disodium], for which the cell viability came to 106%.

On to `CC(C[N+](C)(C)C)OC(N)=O` (centres undefined) [Bethanechol chloride], for which the cell viability turned out to be 95.8%.

With `CCCNC(C)C(=O)Nc1c(C)csc1C(=O)OC` (centres undefined) [Articaine HCl], the cell viability stood at 97.3%.

Take `Cc1ccc(C(=O)C(C)CN2CCCCC2)cc1` (centres undefined) [Tolperisone HCl]: the cell viability was found to be 94.2%.

Take `CNCC[C@@H](Oc1ccccc1C)c1ccccc1` [Atomoxetine HCl]: the cell viability is 95.2%.

Turning to `CC(C)(O)CNc1nc(Nc2ccnc(C(F)(F)F)c2)nc(-c2cccc(C(F)(F)F)n2)n1` [Enasidenib (AG-221)], the cell viability was determined as 102%.

Turning to `C[C@@H](Oc1cc(-c2cnn(C3CCNCC3)c2)cnc1N)c1c(Cl)ccc(F)c1Cl`, the cell viability was determined as 48.7%.

`COCCCOc1ccnc(C[S+]([O-])c2nc3ccccc3[nH]2)c1C` (centres undefined) [Rebeprazole sodium]: the cell viability is 83.4%.

For `COCCCOc1ccnc(C[S+]([O-])c2nc3ccccc3[nH]2)c1C` (centres undefined) [Rabeprazole], the cell viability worked out at 75.7%.

Consider `O=C(O)Cc1cc(I)c(Oc2ccc(O)c(I)c2)c(I)c1` [Tiratricol], for which the cell viability was determined as 101%.

`Cc1cc(Nc2ncc(Cl)c(Nc3ccccc3S(=O)(=O)C(C)C)n2)c(OC(C)C)cc1C1CCNCC1` [Ceritinib (LDK378)]: the cell viability turned out to be 41.6%.

For `CCCCOC(=O)c1ccc(O)cc1` [Butylparaben], the cell viability turned out to be 90.1%.

Take `COCCCOc1cc(C[C@@H](C[C@H](N)[C@@H](O)C[C@H](C(=O)NCC(C)(C)C(N)=O)C(C)C)C(C)C)ccc1OC` [Aliskiren Hemifumarate]: the cell viability is 91.9%.

As to `CCCc1nc2c(C)cc(-c3nc4ccccc4n3C)cc2n1Cc1ccc(-c2ccccc2C(=O)O)cc1` [Telmisartan], the cell viability was 92.5%.

On to `Cc1ccc(C(=O)N(CCCN)[C@@H](c2nc3cc(Cl)ccc3c(=O)n2Cc2ccccc2)C(C)C)cc1`, for which the cell viability turned out to be 48.1%.

Take `CC(=O)/N=c1/sc(S(N)(=O)=O)nn1C` [Methazolamide]: the cell viability is 98.7%.

Consider `CCCCC[C@](C)(O)/C=C/[C@@H]1[C@@H](C/C=C\CCCC(=O)O)[C@@H](O)C[C@H]1O` [Carboprost], for which the cell viability came to 82.6%.

Turning to `CC1=CC(=O)c2ccccc2C1=O` [Menadione], the cell viability amounted to 83.7%.

On to `COc1cc2ncnc(Nc3ccc(F)c(Cl)c3)c2cc1NC(=O)/C=C/CN1CCCCC1`, for which the cell viability was 69%.

`CCCCC1C(=O)N(c2ccccc2)N(c2ccccc2)C1=O` [Phenylbutazone]: the cell viability was found to be 93.9%.

Turning to `O=C(Nc1ccccc1)OCC(CN1CCCCC1)OC(=O)Nc1ccccc1` (centres undefined) [Diperodon HCl], the cell viability worked out at 94.6%.

Take `CO[C@H]1O[C@H](COS(=O)(=O)O)[C@@H](O[C@@H]2O[C@@H](C(=O)O)[C@@H](O[C@H]3O[C@H](COS(=O)(=O)O)[C@@H](O[C@@H]4O[C@H](C(=O)O)[C@@H](O[C@H]5O[C@H](COS(=O)(=O)O)[C@@H](O)[C@H](O)[C@H]5NS(=O)(=O)O)[C@H](O)[C@H]4O)[C@H](OS(=O)(=O)O)[C@H]3NS(=O)(=O)O)[C@H](O)[C@H]2OS(=O)(=O)O)[C@H](O)[C@H]1NS(=O)(=O)O` [Fondaparinux Sodium]: the cell viability was 82.8%.

As to `C[C@@H]1O[C@@H](OC[C@H]2O[C@@H](Oc3c(-c4ccc(O)c(O)c4)oc4cc(O)cc(O)c4c3=O)[C@H](O)[C@@H](O)[C@@H]2O)[C@H](O)[C@H](O)[C@H]1O` [Rutin], the cell viability was 91.8%.

In the case of `CN1[C@@H]2CC[C@H]1C[C@@H](OC(c1ccccc1)c1ccccc1)C2` [Benztropine mesylate], the cell viability amounted to 89%.
